According to paper PMC7691434, “Interaction Analysis of a Plasmodium falciparum PHISTa-like Protein and PfEMP1 Proteins” (Frontiers in Microbiology, 2020):

Molecular target: T1, purified PF3D7_1372300 bait protein (dot blot) (Plasmodium falciparum)
T1 sequence: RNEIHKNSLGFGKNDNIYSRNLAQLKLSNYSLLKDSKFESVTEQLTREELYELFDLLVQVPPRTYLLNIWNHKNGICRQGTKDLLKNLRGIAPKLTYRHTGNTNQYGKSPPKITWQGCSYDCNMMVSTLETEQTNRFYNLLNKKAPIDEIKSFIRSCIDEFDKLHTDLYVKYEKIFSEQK
Experiment: far-Western, overlay or dot blot; purified PF3D7_1372300 bait immobilised on nitrocellulose; total protein from iRBCs added for 1 h (total protein from RBCs as negative control); detected with rat anti-ATS IgG; only the target purified

For “PfEMP1 ATS in the total protein sample from iRBCs”, the binding was “binds”.

No constants are given. Whether binding was seen depends on the method and setting. Binding can be weak; no strength is given.
